Source: paper PMC5434890
Results are given in words; binding and its absence hold for the method and conditions named. For some assays here: Binding seen in cells or lysates may run through a third protein. Some results given as binding are weak or reduced against the parent protein; the word gives no strength.

Chains of the proteins cited; added tags and fusions are not shown. Residues count along the entry.
UniProt Q15848, residues 19-244: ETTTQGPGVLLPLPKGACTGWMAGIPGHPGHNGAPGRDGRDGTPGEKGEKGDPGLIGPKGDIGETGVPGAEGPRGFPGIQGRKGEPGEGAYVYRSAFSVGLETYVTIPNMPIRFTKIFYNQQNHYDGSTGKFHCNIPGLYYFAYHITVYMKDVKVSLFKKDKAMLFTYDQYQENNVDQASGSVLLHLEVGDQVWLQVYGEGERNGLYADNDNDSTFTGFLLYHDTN
UniProt O60568, residues 25-738: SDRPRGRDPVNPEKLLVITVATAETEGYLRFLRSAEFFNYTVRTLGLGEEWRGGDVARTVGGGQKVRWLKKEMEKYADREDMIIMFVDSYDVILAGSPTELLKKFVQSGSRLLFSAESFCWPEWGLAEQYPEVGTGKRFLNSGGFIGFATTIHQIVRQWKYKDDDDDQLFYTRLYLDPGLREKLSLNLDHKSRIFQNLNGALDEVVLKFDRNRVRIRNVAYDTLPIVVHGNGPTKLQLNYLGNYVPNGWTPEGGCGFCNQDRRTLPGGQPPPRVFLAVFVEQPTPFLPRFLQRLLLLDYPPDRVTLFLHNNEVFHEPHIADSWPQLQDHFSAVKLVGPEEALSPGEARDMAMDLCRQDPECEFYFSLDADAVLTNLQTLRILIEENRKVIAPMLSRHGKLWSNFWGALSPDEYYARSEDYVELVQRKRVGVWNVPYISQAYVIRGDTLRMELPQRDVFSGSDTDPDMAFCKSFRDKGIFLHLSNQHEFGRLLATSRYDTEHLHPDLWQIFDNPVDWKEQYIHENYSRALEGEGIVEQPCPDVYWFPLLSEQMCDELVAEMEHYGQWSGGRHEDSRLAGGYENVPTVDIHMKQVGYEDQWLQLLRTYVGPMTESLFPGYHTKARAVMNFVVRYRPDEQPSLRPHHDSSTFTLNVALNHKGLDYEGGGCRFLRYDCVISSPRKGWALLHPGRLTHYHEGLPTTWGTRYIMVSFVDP

Key:
[1] = target: adiponectin (human (endogenous in SGBS)) (UniProt Q15848); assay: co-IP; SGBS adipocyte lysate (modified TK lysis buffer, 0.1% Tween-20), mouse anti-adiponectin antibody or IgG control on Protein G Sepharose, 2 h at 4 °C; Western blot for LH3, GLT25D1 and adiponectin
[2] = target: full-length human adiponectin (Adipo-HEK) (human) (UniProt Q15848); assay: sucrose gradient sedimentation with Western blot; 50 µl of unconcentrated conditioned media of Adipo-HEK cells loaded onto a sucrose gradient; fractions blotted for adiponectin; cells treated with scrambled, GLT25D1 or LH3 siRNA

binding [1]	binding [2]	Substance
binds		lysyl hydroxylase 3 (LH3) (from UniProt O60568 25-738) (enzyme)
	binds	full-length human adiponectin (Adipo-HEK) (from UniProt Q15848 19-244)
